Measurements published in publication PMC7039678.
Residue numbers refer to the chain shown, from its start. Results are given in words; binding and its absence hold for the method and conditions named. Binding seen in cells or lysates may run through a third protein. Some results given as binding are weak or reduced against the parent protein; the word gives no strength. Where a sequence is shown, tags or fusion partners need not be part of it.

Assays:
[1] = biological target: T1, 3x Flag-tagged C692S mutant of TXNDC11 (human) (UniProt Q6PKC3); test: co-IP; lysates of transfected HCT116 knockout cells; anti-Flag antibody and protein G-coupled Sepharose beads; washed with 50 mM Tris/Cl pH 8.0, 1% NP-40, 150 mM NaCl, then PBS; blots of endogenous partners after reducing and non-reducing SDS-PAGE
T1 sequence: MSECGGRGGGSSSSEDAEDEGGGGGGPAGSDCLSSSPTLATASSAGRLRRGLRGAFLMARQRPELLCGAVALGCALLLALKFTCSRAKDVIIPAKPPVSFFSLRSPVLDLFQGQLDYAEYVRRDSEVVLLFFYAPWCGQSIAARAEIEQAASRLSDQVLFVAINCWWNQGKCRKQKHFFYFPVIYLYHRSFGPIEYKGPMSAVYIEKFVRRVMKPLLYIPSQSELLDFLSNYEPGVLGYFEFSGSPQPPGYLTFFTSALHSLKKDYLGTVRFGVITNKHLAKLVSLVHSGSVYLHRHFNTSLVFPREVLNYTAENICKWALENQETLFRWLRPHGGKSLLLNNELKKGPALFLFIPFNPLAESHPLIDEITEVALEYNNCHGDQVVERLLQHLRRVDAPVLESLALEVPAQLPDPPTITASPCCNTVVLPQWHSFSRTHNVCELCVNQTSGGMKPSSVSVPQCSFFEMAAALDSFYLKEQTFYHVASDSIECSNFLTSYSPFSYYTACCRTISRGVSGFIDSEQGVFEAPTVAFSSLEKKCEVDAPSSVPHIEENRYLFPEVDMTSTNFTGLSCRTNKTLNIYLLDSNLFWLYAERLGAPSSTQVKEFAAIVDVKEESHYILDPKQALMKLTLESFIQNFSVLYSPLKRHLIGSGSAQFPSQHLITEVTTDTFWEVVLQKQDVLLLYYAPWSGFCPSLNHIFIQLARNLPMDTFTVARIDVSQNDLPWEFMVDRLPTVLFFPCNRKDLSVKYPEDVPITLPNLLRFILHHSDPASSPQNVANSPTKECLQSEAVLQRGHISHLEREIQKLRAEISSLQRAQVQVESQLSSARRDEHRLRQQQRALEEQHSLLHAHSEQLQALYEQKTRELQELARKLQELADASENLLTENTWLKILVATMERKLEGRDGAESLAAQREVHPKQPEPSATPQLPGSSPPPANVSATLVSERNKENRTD

[2] = biological target: T2, 3x Flag-tagged TXNDC11 (WT) (human) (UniProt Q6PKC3); test: as above
T2 sequence (chain, N-glycosylated): T1 sequence with S692C

binding [1]: no binding
binding [2]: binds
B1: endogenous EDEM2 (enzyme, UniProt Q9BV94 22-578)
chain: APGPDGSAPDPAHYRERVKAMFYHAYDSYLENAFPFDELRPLTCDGHDTWGSFSLTLIDALDTLLILGNVSEFQRVVEVLQDSVDFDIDVNASVFETNIRVVGGLLSAHLLSKKAGVEVEAGWPCSGPLLRMAEEAARKLLPAFQTPTGMPYGTVNLLHGVNPGETPVTCTAGIGTFIVEFATLSSLTGDPVFEDVARVALMRLWESRSDIGLVGNHIDVLTGKWVAQDAGIGAGVDSYFEYLVKGAILLQDKKLMAMFLEYNKAIRNYTRFDDWYLWVQMYKGTVSMPVFQSLEAYWPGLQSLIGDIDNAMRTFLNYYTVWKQFGGLPEFYNIPQGYTVEKREGYPLRPELIESAMYLYRATGDPTLLELGRDAVESIEKISKVECGFATIKDLRDHKLDNRMESFFLAETVKYLYLLFDPTNFIHNNGSTFDAVITPYGECILGAGGYIFNTEAHPIDPAALHCCQRLKEEQWEVEDLMREFYSLKRSRSKFQKNTVSSGPWEPPARPGTLFSPENHDQARERKPAKQKVPLLSCPSQPFTSKLALLGQVFLDSS
